Binding data for 1 molecule are collected here from paper PMC10514931.

Sequences of proteins named here, by UniProt entry; tags and fusion partners are left off. A change or cut given only in a name is not applied to a line headed by its entry.
UniProt Q15672: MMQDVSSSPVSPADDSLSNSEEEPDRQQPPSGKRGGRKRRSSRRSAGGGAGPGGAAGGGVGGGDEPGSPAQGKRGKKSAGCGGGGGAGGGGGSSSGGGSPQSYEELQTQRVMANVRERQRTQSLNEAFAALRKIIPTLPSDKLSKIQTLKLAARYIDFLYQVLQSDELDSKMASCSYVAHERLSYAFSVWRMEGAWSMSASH

For assay [1], the target named is flag-TWIST1 S31A (UniProt Q15672). The assay is described as follows: proximity ligation; Duolink PLA in fixed HEK-293 T cells (WT or S31A flag-TWIST1), anti-TWIST1 and anti-CBLC antibodies, confocal microscopy.
For assay [2] the target is unchanged. Nature of the assay: co-IP; lysates of HEK-293 T cells overexpressing flag-TWIST1 WT or S31A, IP and western blot for CBLC. (Immunoblotting shows a protein as a band on a membrane.)

Results are given in words; binding and its absence hold for the method and conditions named. In cells and extracts the contact can be indirect. Some binding calls cover weakened binding; strength is not graded here.

B1: Casitas B-Lineage Lymphoma Proto-Oncogene C (CBLC) (enzyme, UniProt Q9ULV8 1-474)
chain: MALAVAPWGRQWEEARALGRAVRMLQRLEEQCVDPRLSVSPPSLRDLLPRTAQLLREVAHSRRAAGGGGPGGPGGSGDFLLIYLANLEAKSRQVAALLPPRGRRSANDELFRAGSRLRRQLAKLAIIFSHMHAELHALFPGGKYCGHMYQLTKAPAHTFWRESCGARCVLPWAEFESLLGTCHPVEPGCTALALRTTIDLTCSGHVSIFEFDVFTRLFQPWPTLLKNWQLLAVNHPGYMAFLTYDEVQERLQACRDKPGSYIFRPSCTRLGQWAIGYVSSDGSILQTIPANKPLSQVLLEGQKDGFYLYPDGKTHNPDLTELGQAEPQQRIHVSEEQLQLYWAMDSTFELCKICAESNKDVKIEPCGHLLCSCCLAAWQHSDSQTCPFCRCEIKGWEAVSIYQFHGQATAEDSGNSSDQEGRELELGQVPLSAPPLPPRPDLPPRKPRNAQPKVRLLKGNSPPAALGPQDPAPA
Consider B1, for which the binding entry with flag-TWIST1 S31A [1] and in the assay with flag-TWIST1 S31A [2] was “binds” each time.
